Results are given in words; binding and its absence hold for the method and conditions named. In cells and extracts the contact can be indirect. A yes stands for co-enrichment or nearness to the bait. Other partners may have been found.
Target: T1, Lipolysis-stimulated lipoprotein receptor (LSR) (mouse (endogenous in mouse ISCs)) (UniProt Q99KG5)
T1 sequence: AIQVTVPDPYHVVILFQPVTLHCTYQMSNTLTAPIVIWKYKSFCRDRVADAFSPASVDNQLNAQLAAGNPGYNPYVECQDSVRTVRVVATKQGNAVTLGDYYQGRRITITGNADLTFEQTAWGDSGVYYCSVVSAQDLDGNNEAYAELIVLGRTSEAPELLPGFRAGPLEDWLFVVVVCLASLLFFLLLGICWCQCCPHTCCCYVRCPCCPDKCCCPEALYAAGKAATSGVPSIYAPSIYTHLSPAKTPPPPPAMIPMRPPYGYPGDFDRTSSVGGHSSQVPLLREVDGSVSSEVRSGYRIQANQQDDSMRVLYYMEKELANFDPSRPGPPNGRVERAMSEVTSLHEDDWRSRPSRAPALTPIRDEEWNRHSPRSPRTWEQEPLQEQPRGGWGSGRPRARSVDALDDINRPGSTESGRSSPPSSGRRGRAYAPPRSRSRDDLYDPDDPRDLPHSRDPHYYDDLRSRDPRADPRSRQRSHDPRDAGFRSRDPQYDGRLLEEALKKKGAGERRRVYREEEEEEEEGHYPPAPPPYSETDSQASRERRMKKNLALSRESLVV
Test: affinity purification with mass spectrometry

Sequences of proteins named here, by UniProt entry; tags and fusion partners are left off.
UniProt P63101: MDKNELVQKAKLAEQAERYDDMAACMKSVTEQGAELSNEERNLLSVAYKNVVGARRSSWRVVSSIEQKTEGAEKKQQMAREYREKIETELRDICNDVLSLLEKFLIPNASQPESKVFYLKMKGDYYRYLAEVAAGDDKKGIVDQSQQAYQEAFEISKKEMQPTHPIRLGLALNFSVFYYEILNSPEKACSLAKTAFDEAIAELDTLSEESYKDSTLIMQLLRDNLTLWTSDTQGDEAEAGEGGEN

14-3-3 zeta (from UniProt P63101 1-245)
binding: binds

— publication doi:10.1101/2022.10.30.514401
